Source: the supplement of paper PMC10849652
The list shows a part of the results.

Sequences of proteins named here, by UniProt entry; tags and fusion partners are left off. A change or cut given only in a name is not applied to a line headed by its entry.
UniProt Q14683: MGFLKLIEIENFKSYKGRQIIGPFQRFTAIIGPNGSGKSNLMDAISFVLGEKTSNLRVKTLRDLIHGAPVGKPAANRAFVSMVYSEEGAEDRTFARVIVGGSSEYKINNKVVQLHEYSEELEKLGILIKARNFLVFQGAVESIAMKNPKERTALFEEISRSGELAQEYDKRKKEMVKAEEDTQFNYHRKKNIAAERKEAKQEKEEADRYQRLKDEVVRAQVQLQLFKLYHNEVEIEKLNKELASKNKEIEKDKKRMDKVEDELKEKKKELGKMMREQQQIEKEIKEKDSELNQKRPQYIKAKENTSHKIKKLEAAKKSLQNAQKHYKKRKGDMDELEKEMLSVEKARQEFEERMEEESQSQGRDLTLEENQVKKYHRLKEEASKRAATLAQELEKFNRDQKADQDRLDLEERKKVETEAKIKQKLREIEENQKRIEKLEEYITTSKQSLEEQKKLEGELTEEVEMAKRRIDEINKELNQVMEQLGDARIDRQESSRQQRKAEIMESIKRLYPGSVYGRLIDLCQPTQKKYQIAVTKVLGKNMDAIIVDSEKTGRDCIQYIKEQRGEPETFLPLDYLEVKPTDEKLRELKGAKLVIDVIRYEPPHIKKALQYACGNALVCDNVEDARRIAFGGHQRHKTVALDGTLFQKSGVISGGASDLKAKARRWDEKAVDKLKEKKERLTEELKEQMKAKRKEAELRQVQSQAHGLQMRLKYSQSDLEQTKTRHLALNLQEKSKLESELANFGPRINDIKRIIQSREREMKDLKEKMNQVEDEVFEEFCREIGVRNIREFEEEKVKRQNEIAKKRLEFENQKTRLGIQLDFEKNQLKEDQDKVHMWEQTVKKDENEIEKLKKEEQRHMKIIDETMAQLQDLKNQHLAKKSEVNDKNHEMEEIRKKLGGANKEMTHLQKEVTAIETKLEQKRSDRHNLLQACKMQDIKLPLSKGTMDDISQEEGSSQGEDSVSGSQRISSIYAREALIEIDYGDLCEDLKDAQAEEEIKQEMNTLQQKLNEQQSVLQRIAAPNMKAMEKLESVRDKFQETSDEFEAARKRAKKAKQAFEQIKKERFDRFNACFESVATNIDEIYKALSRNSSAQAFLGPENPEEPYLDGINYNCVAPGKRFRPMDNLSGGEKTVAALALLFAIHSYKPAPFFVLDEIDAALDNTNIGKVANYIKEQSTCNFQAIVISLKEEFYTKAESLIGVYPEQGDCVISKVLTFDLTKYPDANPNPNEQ
UniProt P09661: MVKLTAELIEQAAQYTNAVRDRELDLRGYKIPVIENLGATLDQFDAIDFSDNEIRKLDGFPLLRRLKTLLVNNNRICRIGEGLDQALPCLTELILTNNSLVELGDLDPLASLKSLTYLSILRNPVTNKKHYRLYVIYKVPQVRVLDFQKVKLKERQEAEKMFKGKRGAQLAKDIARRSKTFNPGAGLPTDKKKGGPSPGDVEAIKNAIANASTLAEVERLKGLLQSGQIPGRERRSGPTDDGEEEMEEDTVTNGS
UniProt Q8IY18: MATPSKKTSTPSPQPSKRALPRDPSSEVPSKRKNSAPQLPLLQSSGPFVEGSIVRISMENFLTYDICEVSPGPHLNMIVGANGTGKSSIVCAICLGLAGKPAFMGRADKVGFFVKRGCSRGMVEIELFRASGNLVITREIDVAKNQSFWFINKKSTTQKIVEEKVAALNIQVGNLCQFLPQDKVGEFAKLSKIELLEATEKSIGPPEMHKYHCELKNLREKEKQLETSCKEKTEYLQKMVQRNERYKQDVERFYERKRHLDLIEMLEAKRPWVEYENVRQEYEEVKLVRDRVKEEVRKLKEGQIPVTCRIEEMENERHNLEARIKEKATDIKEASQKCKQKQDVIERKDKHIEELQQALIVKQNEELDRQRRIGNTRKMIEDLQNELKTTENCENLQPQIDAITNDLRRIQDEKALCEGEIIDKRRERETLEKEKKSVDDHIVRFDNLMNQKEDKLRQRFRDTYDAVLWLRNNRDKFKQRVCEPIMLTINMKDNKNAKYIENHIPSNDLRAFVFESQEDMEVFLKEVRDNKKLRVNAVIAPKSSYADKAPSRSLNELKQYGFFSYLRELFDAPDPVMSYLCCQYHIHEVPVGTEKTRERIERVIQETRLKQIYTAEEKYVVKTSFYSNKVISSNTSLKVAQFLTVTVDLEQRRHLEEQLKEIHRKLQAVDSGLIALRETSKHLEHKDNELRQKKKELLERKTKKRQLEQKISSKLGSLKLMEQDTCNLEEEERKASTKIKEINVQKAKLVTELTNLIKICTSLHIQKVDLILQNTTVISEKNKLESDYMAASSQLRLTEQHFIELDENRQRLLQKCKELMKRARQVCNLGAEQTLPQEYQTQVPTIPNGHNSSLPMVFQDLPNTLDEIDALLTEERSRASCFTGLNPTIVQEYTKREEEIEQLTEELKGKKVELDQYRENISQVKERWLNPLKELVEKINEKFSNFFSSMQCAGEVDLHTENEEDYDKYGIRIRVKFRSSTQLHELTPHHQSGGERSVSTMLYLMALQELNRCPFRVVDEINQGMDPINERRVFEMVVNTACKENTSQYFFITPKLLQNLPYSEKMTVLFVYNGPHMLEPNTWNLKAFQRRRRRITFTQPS
UniProt Q8TAQ2, whole entry, looked up: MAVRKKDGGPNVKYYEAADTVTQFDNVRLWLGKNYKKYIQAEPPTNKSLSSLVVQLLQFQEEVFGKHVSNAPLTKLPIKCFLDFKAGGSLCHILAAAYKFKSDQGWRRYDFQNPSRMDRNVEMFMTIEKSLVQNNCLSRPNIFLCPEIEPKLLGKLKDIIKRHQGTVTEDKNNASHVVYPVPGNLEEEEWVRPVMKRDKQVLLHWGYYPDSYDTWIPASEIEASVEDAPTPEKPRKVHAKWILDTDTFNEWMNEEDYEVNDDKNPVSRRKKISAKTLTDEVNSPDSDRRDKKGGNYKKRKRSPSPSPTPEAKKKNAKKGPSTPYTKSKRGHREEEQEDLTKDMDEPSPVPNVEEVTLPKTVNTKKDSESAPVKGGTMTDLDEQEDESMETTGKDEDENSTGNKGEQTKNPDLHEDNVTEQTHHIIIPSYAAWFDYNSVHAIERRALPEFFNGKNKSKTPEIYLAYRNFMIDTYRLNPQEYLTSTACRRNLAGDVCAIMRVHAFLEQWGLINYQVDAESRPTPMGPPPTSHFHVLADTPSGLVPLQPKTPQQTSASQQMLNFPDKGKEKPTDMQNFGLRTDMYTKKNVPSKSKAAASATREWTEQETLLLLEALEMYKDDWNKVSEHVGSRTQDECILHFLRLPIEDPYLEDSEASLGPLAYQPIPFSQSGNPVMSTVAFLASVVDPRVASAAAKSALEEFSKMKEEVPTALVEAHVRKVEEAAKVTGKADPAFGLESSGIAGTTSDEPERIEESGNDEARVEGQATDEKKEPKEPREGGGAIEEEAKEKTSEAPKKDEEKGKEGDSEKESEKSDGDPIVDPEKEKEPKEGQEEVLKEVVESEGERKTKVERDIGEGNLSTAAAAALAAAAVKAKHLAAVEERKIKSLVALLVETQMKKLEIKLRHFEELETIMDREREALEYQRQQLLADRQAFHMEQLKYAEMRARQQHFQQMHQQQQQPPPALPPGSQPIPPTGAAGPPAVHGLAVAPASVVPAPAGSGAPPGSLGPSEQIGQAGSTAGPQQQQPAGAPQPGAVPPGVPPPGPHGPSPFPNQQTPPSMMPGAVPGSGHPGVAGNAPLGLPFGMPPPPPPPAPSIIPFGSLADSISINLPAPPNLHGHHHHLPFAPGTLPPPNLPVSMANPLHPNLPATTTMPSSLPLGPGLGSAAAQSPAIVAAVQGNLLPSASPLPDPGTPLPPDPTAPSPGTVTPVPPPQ
UniProt Q8NDV3: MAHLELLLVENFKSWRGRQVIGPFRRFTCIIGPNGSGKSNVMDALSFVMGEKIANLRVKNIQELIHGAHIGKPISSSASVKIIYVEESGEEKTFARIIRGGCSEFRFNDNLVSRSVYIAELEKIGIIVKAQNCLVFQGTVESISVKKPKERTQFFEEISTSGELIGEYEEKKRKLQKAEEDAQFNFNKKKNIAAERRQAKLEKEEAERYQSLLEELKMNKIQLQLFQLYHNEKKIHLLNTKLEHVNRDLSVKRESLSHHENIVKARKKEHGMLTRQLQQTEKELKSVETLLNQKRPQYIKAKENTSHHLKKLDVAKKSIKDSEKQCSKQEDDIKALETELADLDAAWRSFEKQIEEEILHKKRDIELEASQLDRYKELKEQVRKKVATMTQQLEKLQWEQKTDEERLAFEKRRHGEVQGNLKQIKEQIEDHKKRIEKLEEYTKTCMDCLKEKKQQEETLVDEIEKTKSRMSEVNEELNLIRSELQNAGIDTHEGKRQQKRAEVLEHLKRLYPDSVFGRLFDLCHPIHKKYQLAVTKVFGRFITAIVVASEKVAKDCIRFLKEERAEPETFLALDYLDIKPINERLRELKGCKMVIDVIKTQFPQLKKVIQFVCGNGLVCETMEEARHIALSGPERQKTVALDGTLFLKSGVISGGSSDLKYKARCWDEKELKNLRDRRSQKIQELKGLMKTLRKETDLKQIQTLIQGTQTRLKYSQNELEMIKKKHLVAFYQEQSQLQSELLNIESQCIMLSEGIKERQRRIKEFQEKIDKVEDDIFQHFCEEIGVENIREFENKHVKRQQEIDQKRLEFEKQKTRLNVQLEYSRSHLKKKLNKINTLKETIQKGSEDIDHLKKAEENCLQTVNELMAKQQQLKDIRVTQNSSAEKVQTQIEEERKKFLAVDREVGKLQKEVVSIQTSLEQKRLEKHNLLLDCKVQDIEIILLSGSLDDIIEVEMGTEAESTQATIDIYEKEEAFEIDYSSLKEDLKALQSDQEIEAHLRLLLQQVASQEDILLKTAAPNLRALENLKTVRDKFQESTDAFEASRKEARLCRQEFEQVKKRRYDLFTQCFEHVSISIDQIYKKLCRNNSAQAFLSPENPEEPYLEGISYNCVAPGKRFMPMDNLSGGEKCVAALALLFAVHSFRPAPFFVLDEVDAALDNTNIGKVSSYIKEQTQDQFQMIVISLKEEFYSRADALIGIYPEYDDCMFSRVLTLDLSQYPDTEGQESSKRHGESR
UniProt O95149, whole entry, looked up: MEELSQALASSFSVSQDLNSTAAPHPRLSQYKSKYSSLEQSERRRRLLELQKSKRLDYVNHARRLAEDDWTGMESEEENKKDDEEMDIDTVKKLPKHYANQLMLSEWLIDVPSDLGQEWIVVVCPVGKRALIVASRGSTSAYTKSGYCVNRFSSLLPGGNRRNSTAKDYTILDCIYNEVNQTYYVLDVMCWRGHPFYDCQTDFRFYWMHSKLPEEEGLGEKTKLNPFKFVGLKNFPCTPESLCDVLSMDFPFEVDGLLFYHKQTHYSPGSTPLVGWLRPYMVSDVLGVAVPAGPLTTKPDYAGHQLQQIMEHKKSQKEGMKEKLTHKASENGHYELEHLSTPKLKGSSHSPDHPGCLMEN

Key:
Assay in all cases: log2 fold change, soluble protein after heating vs DMSO (PISA); higher = thermal stabilisation; K562 cells, 10 uM, 30 min; active = over 0.2 and 3.5 SD of the protein, either way, in both replicates (recomputed)
bafetinib = compound: Cc1ccc(NC(=O)c2ccc(CN3CC[C@H](N(C)C)C3)c(C(F)(F)F)c2)cc1Nc1nccc(-c2cncnc2)n1 [bafetinib]
Procedure, shortened: (§1)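 K562 cells (2×10^6 cells/mL) were treated with 10 μM compound for 30 min, and aliquots were heated for 3 min over 48°C-58°C. Pooled aliquots were extracted in PBS with 0.5% NP-40 at 4°C, and the supernatant after 21,000xg for 90 min was measured by TMTpro 16plex LC-MS/MS with channel sums equalised. Reported thermal stability, relative to control samples and from duplicates, is a log2 fold change.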

[1] = compound: Cc1cccc(CC(=O)N2CCc3c2ccc(-c2cn(C)c4ncnc(N)c24)c3F)n1
Procedure, shortened: as §1

nilotinib = compound: Cc1cn(-c2cc(NC(=O)c3ccc(C)c(Nc4nccc(-c5cccnc5)n4)c3)cc(C(F)(F)F)c2)cn1 [nilotinib]
Procedure, shortened: as §1

[2] = compound: Cc1nc(Nc2n[nH]c3c2CN(C(=O)N[C@H](CN(C)C)c2ccccc2)C3(C)C)c2sccc2n1
Procedure, shortened: as §1

dasatinib = compound: Cc1nc(Nc2ncc(C(=O)Nc3c(C)cccc3Cl)s2)cc(N2CCN(CCO)CC2)n1 [dasatinib]
Procedure, shortened: as §1

[3] = compound: Cc1ncc(-c2ccnc(Nc3ccc(S(C)(=O)=O)cc3)n2)n1C(C)C
Procedure, shortened: as §1

[4] = compound: Cn1cc(-c2ccc3c(c2)CCN3C(=O)Cc2cccc(C(F)(F)F)c2)c2c(N)ncnc21
Procedure, shortened: as §1

[5] = compound: Cn1cc(-c2ccc3nnc(C(F)(F)c4ccc5ncccc5c4)n3n2)cn1
Procedure, shortened: as §1

tipifarnib = compound: Cn1cncc1[C@@](N)(c1ccc(Cl)cc1)c1ccc2c(c1)c(-c1cccc(Cl)c1)cc(=O)n2C [tipifarnib]
Procedure, shortened: as §1

mubritinib = compound: FC(F)(F)c1ccc(/C=C/c2nc(COc3ccc(CCCCn4ccnn4)cc3)co2)cc1 [mubritinib]
Procedure, shortened: as §1

[6] = compound: NC(=O)Nc1cc(-c2cccc(F)c2)sc1C(=O)N[C@H]1CCCNC1
Procedure, shortened: as §1

[7] = compound: NC(=O)c1cnc(N[C@@H]2CCCC[C@@H]2N)nc1Nc1cccc(-n2nccn2)c1
Procedure, shortened: as §1

[8] = compound: NC1(c2ccc(-c3nc4ccn5c(=O)[nH]nc5c4cc3-c3ccccc3)cc2)CCC1
Procedure, shortened: as §1

[9] = compound: NCC(=O)Nc1ccc(-n2nc(C(F)(F)F)cc2-c2ccc3c(ccc4ccccc43)c2)cc1
Procedure, shortened: as §1

entinostat = compound: Nc1ccccc1NC(=O)c1ccc(CNC(=O)OCc2cccnc2)cc1 [entinostat]
Procedure, shortened: as §1

vorinostat = compound: O=C(CCCCCCC(=O)Nc1ccccc1)NO [vorinostat]
Procedure, shortened: as §1

citarinostat = compound: O=C(CCCCCCNC(=O)c1cnc(N(c2ccccc2)c2ccccc2Cl)nc1)NO [citarinostat]
Procedure, shortened: as §1

silmitasertib = compound: O=C(O)c1ccc2c(c1)nc(Nc1cccc(Cl)c1)c1ccncc12 [silmitasertib]
Procedure, shortened: as §1

[10] = compound: O=C1NC(=O)C(c2cnc3ccccn23)=C1c1cn2c3c(cc(F)cc13)CN(C(=O)N1CCCCC1)CC2
Procedure, shortened: as §1

[11] = compound: c1cc(OCCN2CCCCC2)cc(-c2n[nH]c3ccc(-c4nnc[nH]4)cc23)c1
Procedure, shortened: as §1

Measured: log2 fold change

SNCA (UniProt P37840)
inactive: bafetinib -0.023 | [1] -0.019 | nilotinib 0.001 | [2] 0.031 | dasatinib 0.01 | [3] 0 | [4] 0.085 | [5] 0.014 | tipifarnib -0.048 | mubritinib 0.063 | [6] 0.023 | [7] -0.015 | [8] 0.024 | [9] -0.027 | entinostat -0.024 | vorinostat 0.07 | citarinostat 0.042 | silmitasertib -0.023 | [10] -0.022 | [11] -0.048

SLIRP (UniProt Q9GZT3)
inactive: bafetinib -0.156 | [1] -0.099 | nilotinib 0.118 | [2] -0.027 | dasatinib -0.134 | [3] -0.073 | [4] 0.131 | [5] 0.075 | tipifarnib 0.031 | mubritinib -0.044 | [6] -0.121 | [7] -0.106 | [8] -0.041 | [9] -0.062 | entinostat 0.127 | vorinostat -0.055 | citarinostat 0.023 | silmitasertib -0.016 | [10] -0.129 | [11] -0.129

SMC1A (UniProt Q14683)
inactive: bafetinib -0.012 | [1] -0.007 | nilotinib 0.027 | [2] -0.069 | dasatinib -0.028 | [3] -0.037 | [4] 0.007 | [5] -0.002 | tipifarnib 0.001 | mubritinib 0.032 | [6] -0.012 | [7] -0.032 | [8] -0.01 | [9] -0.056 | entinostat -0.009 | vorinostat 0.1 | citarinostat 0.06 | silmitasertib -0.013 | [10] -0.017 | [11] -0.089

Quoted from the listing (two entries):
SNCA (UniProt P37840)
inactive: bafetinib -0.023 | [1] -0.019 | nilotinib 0.001 | [2] 0.031 | dasatinib 0.01 | [3] 0 | [4] 0.085 | [5] 0.014 | tipifarnib -0.048 | mubritinib 0.063 | [6] 0.023 | [7] -0.015 | [8] 0.024 | [9] -0.027 | entinostat -0.024 | vorinostat 0.07 | citarinostat 0.042 | silmitasertib -0.023 | [10] -0.022 | [11] -0.048

SLIRP (UniProt Q9GZT3)
inactive: bafetinib -0.156 | [1] -0.099 | nilotinib 0.118 | [2] -0.027 | dasatinib -0.134 | [3] -0.073 | [4] 0.131 | [5] 0.075 | tipifarnib 0.031 | mubritinib -0.044 | [6] -0.121 | [7] -0.106 | [8] -0.041 | [9] -0.062 | entinostat 0.127 | vorinostat -0.055 | citarinostat 0.023 | silmitasertib -0.016 | [10] -0.129 | [11] -0.129

More entries follow.

SNRPA1 (UniProt P09661)
inactive: bafetinib 0.046 | [1] -0.054 | nilotinib 0.009 | [2] 0.087 | dasatinib 0.082 | [3] 0.111 | [4] -0.04 | [5] -0.03 | tipifarnib 0.019 | mubritinib 0.003 | [6] 0.12 | [7] 0.003 | [8] 0.06 | [9] 0.047 | entinostat 0.008 | vorinostat -0.084 | citarinostat -0.029 | silmitasertib 0.022 | [10] 0.105 | [11] -0.041

SMC5 (UniProt Q8IY18)
inactive: bafetinib 0.02 | [1] -0.029 | nilotinib 0 | [2] -0.095 | dasatinib 0.05 | [3] 0.082 | [4] 0.006 | [5] -0.102 | tipifarnib 0.032 | mubritinib -0.004 | [6] 0.057 | [7] -0.034 | [8] -0.083 | [9] -0.051 | entinostat -0.033 | vorinostat 0.017 | citarinostat -0.021 | silmitasertib 0.052 | [10] -0.1 | [11] -0.051

SMARCC2 (UniProt Q8TAQ2)
inactive: bafetinib -0.06 | [1] 0.033 | nilotinib -0.043 | [2] -0.009 | dasatinib -0.14 | [3] 0.048 | [4] -0.048 | [5] 0.168 | tipifarnib -0.097 | mubritinib 0.175 | [6] 0.085 | [7] -0.212 | [8] -0.05 | [9] -0.092 | entinostat 0.137 | vorinostat 0.103 | citarinostat 0.087 | silmitasertib 0.026 | [10] -0.065 | [11] -0.033

SMC1B isoform 3 (UniProt Q8NDV3)
inactive: bafetinib -0.126 | [1] 0.011 | nilotinib 0.03 | [2] 0.04 | dasatinib -0.048 | [3] -0.081 | [4] -0.042 | [5] 0.035 | tipifarnib 0 | mubritinib 0.062 | [6] -0.033 | [7] 0.173 | [8] -0.081 | [9] -0.02 | entinostat -0.003 | vorinostat 0.048 | citarinostat 0.026 | silmitasertib 0.136 | [10] -0.051 | [11] 0.056

SNUPN (UniProt O95149)
inactive: bafetinib -0.031 | [1] 0.006 | nilotinib -0.025 | [2] -0.009 | dasatinib -0.051 | [3] 0.018 | [4] 0.013 | [5] -0.054 | tipifarnib 0.003 | mubritinib 0.06 | [6] -0.031 | [7] -0.06 | [8] -0.095 | [9] -0.063 | entinostat 0.06 | vorinostat 0.027 | citarinostat -0.082 | silmitasertib 0.027 | [10] -0.077 | [11] 0.071
